We go through one molecule from paper PMC5017680, “treA Codifies for a Trehalase with Involvement in Xanthomonas citri subsp. citri Pathogenicity” (PLoS ONE, 2016).

The experiment concerns the target Xanthomonas citri subsp. citri periplasmic trehalase (TreA), recombinant (Xanthomonas citri subsp. citri (strain 306)) (UniProt Q8PPT1). The experiment in a line: SEC; Superdex 200 10/300 GL, 25 mM Tris-HCl pH 8.0, 50 mM NaCl, 0.5 mL/min, absorbance at 280 nm; elution compared with a calibration curve, modelled as monomer or dimer; both purified.

Results are given in words; binding and its absence hold for the method and conditions named.

B1: Xanthomonas citri subsp. citri periplasmic trehalase (TreA), recombinant (enzyme, UniProt Q8PPT1 40-568)
chain: APLDAPVVNAPAPTPPTPDLAYPELFQAVQRGELFDDQKHFVDFLPLRDPALINADYLAQHDHPGFDLRKFVDANFEESPPVQTDAIRQDTALREHIDLLWPKLVRSQNHVPPHSSLLALPHPYVVPGGRFREVYYWDSYFTMLGLVKSGETTLSRQMLDNFAYLIDTYGHIPNGNRTYYLSRSQPPFFSYMVELQAGVEGEAVYQRYLPQLQKEYAYWMQGSDDLQPGQAARHVVRLADGSVLNRYWDERDTPRPEAWLHDTRTAAEVTDRPAAEVYRDLRAGAESGWDYTSRWLADGQNLRTIRTTAILPIDLNSLLYHLERTLALACAQPGAECTRDYAALAQQRKQAIDAHLWNTAGYYADYDWQTRTLSNQVTAAALYPLFAGLASDDHAKRTASTVRKTLLRPGGLATTAVKTGQQWDEPNGWAPLQWVAVDGLRRYGEDALARTIGERFLAQVQALFAREHKLVEKYGLETDAAGGGGGEYALQDGFGWTNGVTLMLLNLYPGKDTKAAPAKRVRKPEAAAR
For the molecule B1, the binding entry is “no binding”.
